Laboratory results published in paper PMC6957483, “Anosmin-1 activates vascular endothelial growth factor receptor and its related signaling pathway for olfactory bulb angiogenesis” (Scientific Reports, 2020).
No constants are given. Whether binding was seen depends on the method and setting.

Target: Recombinant human VEGF-A165 (human)
Test: SPR; BIAcore, 20 °C; VEGF-A (50 µg/mL in 10 mM sodium acetate, pH 4.5) coupled to an EDC/NHS-activated CM5 chip; anosmin-1 WT injected in PBS with 0.35 M NaCl at 30 µL/min; both purified

B1: Recombinant human anosmin-1 wild-type (natural protein, UniProt P23352 25-680, looked up)
chain: AGPGAAAARRLDESLSAGSVQRARCASRCLSLQITRISAFFQHFQNNGSLVWCQNHKQCSKCLEPCKESGDLRKHQCQSFCEPLFPKKSYECLTSCEFLKYILLVKQGDCPAPEKASGFAAACVESCEVDNECSGVKKCCSNGCGHTCQVPKTLYKGVPLKPRKELRFTELQSGQLEVKWSSKFNISIEPVIYVVQRRWNYGIHPSEDDATHWQTVAQTTDERVQLTDIRPSRWYQFRVAAVNVHGTRGFTAPSKHFRSSKDPSAPPAPANLRLANSTVNSDGSVTVTIVWDLPEEPDIPVHHYKVFWSWMVSSKSLVPTKKKRRKTTDGFQNSVILEKLQPDCDYVVELQAITYWGQTRLKSAKVSLHFTSTHATNNKEQLVKTRKGGIQTQLPFQRRRPTRPLEVGAPFYQDGQLQVKVYWKKTEDPTVNRYHVRWFPEACAHNRTTGSEASSGMTHENYIILQDLSFSCKYKVTVQPIRPKSHSKAEAVFFTTPPCSALKGKSHKPVGCLGEAGHVLSKVLAKPENLSASFIVQDVNITGHFSWKMAKANLYQPMTGFQVTWAEVTTESRQNSLPNSIISQSQILPSDHYVLTVPNLRPSTLYRLEVQVLTPGGEGPATIKTFRTPELPPSSAHRSHLKHRHPHHYKPSPERY
notes: anosmin-1, human, product of the ANOS1 gene; also called anosmin-1 WT; WT; source: 293 T cells (pSecTag2 vector), conditioned media, purified (HisTrap HP column, PD-10 column)
binding: no binding (tested: RU less than 70)
